From patent publication US20190381127A1, “COMBINATION THERAPY WITH A6, CHEMOTHERAPEUTIC AGENTS, RADIATION THERAPY, OR A COMBINATION THEREOF FOR THE TREATMENT OF CANCER” (Splash Pharmaceuticals, Inc., priority 2016, published 2019)
Results are given in words; binding and its absence hold for the method and conditions named. Some entries that bind do so weakly or less than the wild type.

Amino acid sequences for entries named in this document (tags omitted). Residues count along the entry.
UniProt P16070, residues 21-742: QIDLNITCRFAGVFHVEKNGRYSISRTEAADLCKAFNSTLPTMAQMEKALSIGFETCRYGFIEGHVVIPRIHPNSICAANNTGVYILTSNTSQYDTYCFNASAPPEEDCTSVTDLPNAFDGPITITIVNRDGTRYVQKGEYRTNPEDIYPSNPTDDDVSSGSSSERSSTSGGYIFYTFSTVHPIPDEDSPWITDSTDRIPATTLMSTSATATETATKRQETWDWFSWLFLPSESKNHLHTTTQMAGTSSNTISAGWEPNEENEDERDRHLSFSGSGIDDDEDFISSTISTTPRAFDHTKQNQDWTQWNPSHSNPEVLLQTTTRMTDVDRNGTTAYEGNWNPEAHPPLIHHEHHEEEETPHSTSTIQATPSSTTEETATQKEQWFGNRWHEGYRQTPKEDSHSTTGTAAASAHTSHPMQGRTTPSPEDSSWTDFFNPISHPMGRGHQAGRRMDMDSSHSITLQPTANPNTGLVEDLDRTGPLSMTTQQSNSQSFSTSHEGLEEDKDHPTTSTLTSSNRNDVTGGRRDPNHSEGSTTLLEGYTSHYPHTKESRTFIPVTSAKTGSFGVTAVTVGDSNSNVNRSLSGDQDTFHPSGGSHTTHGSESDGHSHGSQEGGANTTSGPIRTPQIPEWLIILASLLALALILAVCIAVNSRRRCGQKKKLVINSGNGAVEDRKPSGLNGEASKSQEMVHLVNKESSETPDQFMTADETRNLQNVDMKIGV

Biological target: CD44 on human ovarian SKOV3 cells (human) (UniProt P16070)
Assay: cross-linking of A6 to SKOV3 cells, immunoprecipitation and immunoblot

## KPSSPPEE (N-terminal acetyl (Ac-), C-terminal amide (-NH2)) [A6 peptide (Ac-KPSSPPEE-NH2)]
  binding: binds
